Library screen at single concentrations

Amino acid sequences for entries named in this document (tags omitted). Residues count along the entry.
UniProt P9WPC5, whole entry: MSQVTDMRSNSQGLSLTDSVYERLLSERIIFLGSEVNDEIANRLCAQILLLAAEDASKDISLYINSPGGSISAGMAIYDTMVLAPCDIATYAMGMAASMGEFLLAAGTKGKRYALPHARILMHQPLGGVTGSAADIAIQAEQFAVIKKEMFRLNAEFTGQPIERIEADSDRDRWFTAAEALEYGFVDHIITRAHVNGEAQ
UniProt P9WPC3, whole entry partner: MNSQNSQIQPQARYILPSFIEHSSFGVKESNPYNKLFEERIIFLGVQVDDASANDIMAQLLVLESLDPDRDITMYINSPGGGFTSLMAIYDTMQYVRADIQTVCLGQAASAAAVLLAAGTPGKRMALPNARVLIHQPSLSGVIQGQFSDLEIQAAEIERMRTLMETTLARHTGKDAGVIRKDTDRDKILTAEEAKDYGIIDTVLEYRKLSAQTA
UniProt A4I591, 1-473: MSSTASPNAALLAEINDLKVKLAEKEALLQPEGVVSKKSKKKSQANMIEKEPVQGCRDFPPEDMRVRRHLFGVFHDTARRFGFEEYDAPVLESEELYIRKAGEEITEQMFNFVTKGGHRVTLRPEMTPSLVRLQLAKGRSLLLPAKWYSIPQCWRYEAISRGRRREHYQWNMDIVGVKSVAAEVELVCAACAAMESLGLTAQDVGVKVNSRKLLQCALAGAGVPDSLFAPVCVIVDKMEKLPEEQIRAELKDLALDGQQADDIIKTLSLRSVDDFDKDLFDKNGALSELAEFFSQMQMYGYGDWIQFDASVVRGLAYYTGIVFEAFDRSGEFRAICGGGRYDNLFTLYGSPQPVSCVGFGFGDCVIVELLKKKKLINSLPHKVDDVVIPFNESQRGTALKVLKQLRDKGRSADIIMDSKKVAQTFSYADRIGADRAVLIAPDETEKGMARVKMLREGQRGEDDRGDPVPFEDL

Source: ChEMBL document CHEMBL3988442, “University of Dundee, Small-Polar-MMV Screening Library” (2021).

ClpP1P2: 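Protease assay of ClpP1P2, read by the AMC dye that it sets free. Target: ClpP1P2, Mycobacterium tuberculosis (UniProt P9WPC5 and UniProt P9WPC3). Tested at 50 µM. Direction is inferred from only a few compounds that gave an IC50; most scored high, so higher reads as stronger inhibition. Most other retested compounds had strongly negative values. About 69,000 compounds were tested under these conditions; 0.015% (about 10) showed 50% or more at least once.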
LiHisRS: 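Enzyme assay of histidyl-tRNA synthetase; the read-out is not stated. Target: Histidine-tRNA ligase, Leishmania infantum (UniProt A4I591). Concentration: 30 µM. Higher reads as stronger inhibition (inferred: compounds with an IC50 in retests scored well above the rest). The assay is labelled LdHisRS but filed under L. infantum. About 69,000 compounds were tested under these conditions; 0.6% (about 410) showed 50% or more at least once.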

Values are the deposited “Percent Effect”, in %. The record does not define 0% and 100%; most values in the screen are far below 50% and negative numbers occur (in some assays of this library far below -100). Compounds were drawn at random from those tested, without regard to their results.

| # | compound | ClpP1P2 | LiHisRS |
|---|---|---|---|
| 1 | `N#Cc1ccc(NCCNc2ccc(C(F)(F)F)cn2)nc1` | 11.76 | 20 |
| 2 | `CC(C)COC(=O)N1[C@@H](c2ccco2)[C@@H](CO)C[C@]12CCCCNC2=O` | 3.861 | 16.33 |
| 3 | `Cc1ncnc2c1CCN(Cc1nccs1)CC2` | 4.938 | 10.53 |
| 4 | `CCCN(Cc1nc2ccccc2[nH]1)Cc1ccccc1OC` | -14.12 | 12.82 |
| 5 | `Cc1cc(C)c(CNC(=O)NCC(O)c2ccc(Cl)cc2)c(=O)[nH]1` (stereo not drawn) | -17.92 | 11.4 |
| 6 | `COCc1cn(C2CCN(CCC(C)c3ccccc3)CC2)nn1` (stereo not drawn) | -11.98 | 11.19 |
| 7 | `COc1ccccc1OCC(=O)NCC(O)(c1ccccc1)C1CC1` (stereo not drawn) | -8.107 | 19.23 |
| 8 | `CNc1nc(N2CCN(CC=C(C)C)C(CCO)C2)nc2c1CCC2` (stereo not drawn) | -13.3 | 11.84 |
| 9 | `O=C(CC1CC1)N[C@@H]1CN(Cc2ccncc2)C[C@@H]2CCCO[C@@H]21` | -5.291 | 5.66 |
| 10 | `Cc1nocc1C(=O)N1CCCC2(CCN(c3cnn(C)c3)C2=O)C1` (stereo not drawn) | -0.5039 | 24.19 |
| 11 | `CC(C)Cc1cc(CNC(=O)C2CCCN(Cc3ccco3)C2)no1` (stereo not drawn) | -8.226 | 9.677 |
| 12 | `Cc1cc(C(N)=O)nc(C2(C)CCCN2Cc2cnn(C)c2)n1` (stereo not drawn) | -10.66 | 11.58 |
| 13 | `CCC1=N[C@@]2(CC[C@@H]3CN(C(=O)NC(C)C)C[C@@H]32)C(=O)N1C` | 4.046 | 19.23 |
| 14 | `COCCNC(=O)c1cc(COc2cncc(Cl)c2)on1` | 3.11 | 9.333 |
| 15 | `CN(CCSc1nncn1CC(F)(F)F)c1ccccc1` | 9.8 | 14.16 |
| 16 | `COc1ccccc1CN1CCC(c2nccc(C)n2)C1` (stereo not drawn) | -6.167 | 22.38 |
| 17 | `COC[C@@]12CC[C@@H](N3CCOCC3)C[C@H]1CCN(c1ccc(Cl)cn1)C2` | -0.7704 | 22.22 |
| 18 | `O=C(CC1CC1)N1CCC2(CC1)CN(c1ncccn1)CCO2` | 10.84 | -2.19 |
| 19 | `Cc1cc2ccncc2n1CC1(O)CCN(C(=O)c2ccccn2)CC1` | -17.03 | 14.29 |
| 20 | `CS(=O)(=O)N1CCOCC2(CCN(C(=O)c3ccco3)CC2)C1` | -15.5 | -93.55 |
| 21 | `Cc1noc(C)c1CN(C)C(=O)NCCOc1ccc(F)cc1F` | -7.842 | 10.45 |
| 22 | `O=C(NCCC1CN(C2CCCC2)CCO1)c1cc(=O)[nH]c(=O)[nH]1` (stereo not drawn) | -6.516 | 17.65 |
| 23 | `CC1CCN(C(=O)c2cc(NC(=O)c3ccccc3)n(C)n2)CC1` | 15.63 | 16.67 |
| 24 | `Cc1cc2c(=O)n3c(nc2s1)CCN(C(=O)c1ccn(C)n1)CC3` | -15.17 | 6 |
| 25 | `CCN1CCN(C2CCN(Cc3nnc(C4CC4)o3)CC2)C1=O` | -17.85 | -13.27 |
| 26 | `Cc1csc(CCCNc2ccc(S(N)(=O)=O)cc2C#N)n1` | -14.38 | 21.05 |
| 27 | `O=C(Nc1cccnc1)[C@H]1C[C@H]2OCC[C@H]2N(CC2CC2)C1` | -0.769 | 7.273 |
| 28 | `O=C(Nc1cc(Cl)ccc1N1CCCCC1)c1ccccn1` | 3.616 | 25.64 |
| 29 | `CN1CCN(C(=O)c2cnn(-c3ccccc3Cl)c2)CC1` | -3.392 | 14.04 |
| 30 | `Cc1nnc(SCCNC(=O)c2cc(S(N)(=O)=O)ccc2F)s1` | -5.6 | 3.665 |
| 31 | `Cc1cccc(-c2noc(CN3CCCC(Cn4cncn4)C3)n2)c1` (stereo not drawn) | 5.384 | 5.618 |
| 32 | `COCCOCC(=O)Nc1ccc(F)cc1C` | 10.14 | 0 |
| 33 | `Cc1cccnc1NC(=O)c1ccc(-n2ncc(C#N)c2N)cc1` | -6.848 | 10.17 |
| 34 | `O=C1O[C@@H]2CN(Cc3ccccc3F)C[C@@H]2N1CCCN1CCOCC1` | 11.24 | 15 |
| 35 | `Cn1cc(N2C[C@@H]3CN(S(=O)(=O)C4CC4)C[C@@H]3C2=O)cn1` | 3.476 | 18.97 |
| 36 | `N#Cc1ccc(CS(=O)(=O)NC(=O)COc2ccc3c(c2)CCC3)cc1` | -0.2505 | 0.9259 |
| 37 | `COCCOc1ncccc1CNCc1c(C)nn(C)c1N(C)C` | 8.492 | 23.81 |
| 38 | `O=C(Cn1ccc(C(=O)O)n1)Nc1c(Cl)cccc1Cl` | -13.99 | 0 |
| 39 | `CCC(=O)NC1CCCN(C(=O)Nc2cccc(COC(C)C)c2)C1` (stereo not drawn) | 9.44 | 16.67 |
| 40 | `CCN1C[C@@H]2CN(S(=O)(=O)c3cccs3)C[C@@H]2C1=O` | -7.031 | 19.42 |
| 41 | `CCn1cc(CN2CCCn3nc(CNC(=O)C4CCC4)cc3C2)cn1` | -4.001 | 21.7 |
| 42 | `Cn1cc(Cl)cc1C(=O)N1CCC2(CCCN(CC3CCC3)C2=O)C1` (stereo not drawn) | -10.16 | 20.97 |
| 43 | `O=C(Cn1cccn1)N1CCC(c2nnc(-c3ccsc3)o2)CC1` | -7.044 | 2.797 |
| 44 | `COc1ccc(C2(c3nc(-c4cccnc4)no3)CCOCC2)cc1` | 13.89 | 30.14 |
| 45 | `CNc1ncc(CN(C)Cc2cc(O)c3cc(F)ccc3n2)cn1` | -3.237 | 17.17 |
| 46 | `CCC(O)CN1CCN(C(=O)Cc2cc(Cl)ccc2OC)CC1` (stereo not drawn) | -8.168 | 12.5 |
| 47 | `CN1C[C@@H](C(=O)NCC(F)(F)F)[C@@]2(CCc3ccccc3C(=O)N2)C1` | -20.69 | 0 |
| 48 | `O=C(CCn1ccc2ccccc21)Nc1ccnn1CC1CCOC1` (stereo not drawn) | -10.93 | 4.878 |
| 49 | `O=C(NCCN1CCOCC1)NCc1ccccc1-n1cccn1` | 1.722 | 16.44 |
| 50 | `O=C(NCC1CC1)C1CSCN1S(=O)(=O)c1ccccc1` (stereo not drawn) | -1.297 | 13.25 |
| 51 | `O=S(=O)(CCCn1cncn1)Cc1cccc(F)c1` | 2.884 | -11.84 |
| 52 | `Cc1nc(C)n(CC2CCCN(CCc3ccccn3)C2)n1` (stereo not drawn) | -5.178 | 18.92 |
| 53 | `CCNC(=O)[C@@H]1C[C@H](NC(=O)Cn2ccnc2)CN1Cc1ccsc1` | 0.4795 | 10.39 |
| 54 | `Cc1cccc(NC(=O)N2CCn3cnc(COCC4CC4)c3C2)c1` | 9.431 | 17.81 |
| 55 | `Cc1nc(CN2CCO[C@H]3[C@@H](Oc4ccccn4)CC[C@@H]32)cs1` | 1.511 | 9.735 |
| 56 | `CC1(CCC(=O)N2CCC(n3cc(C4(O)CCCC4)nn3)CC2)CC1` | 12.85 | 14.29 |
| 57 | `Cn1cnc(S(=O)(=O)NCC(C)(O)c2ccc3c(c2)OCO3)c1` (stereo not drawn) | -5.022 | 6.957 |
| 58 | `N#Cc1cccc(NC(=O)C2CCCN2c2nccs2)c1` (stereo not drawn) | -14.42 | 12.04 |
| 59 | `CC(=O)N1CCCN(C(=O)NC(C)c2csc3ccccc23)CC1` (stereo not drawn) | -0.9665 | 20.59 |
| 60 | `CN(Cc1ccsc1)C(=O)c1nc(N2CCCC2)ncc1Cl` | 6.813 | 17.78 |
| 61 | `NC(=O)c1c(NC(=O)CCCC(=O)O)sc2c1CCc1ccccc1-2` | -5.574 | 17.39 |
| 62 | `O=C(Nc1cccn(Cc2ccc(F)cc2)c1=O)c1csnn1` | -8.667 | 9.735 |

For reference, 7 entries once more:

COCCNC(=O)c1cc(COc2cncc(Cl)c2)on1 gave ClpP1P2: 3.11%; LiHisRS: 9.333%.
O=C(NCC1CC1)C1CSCN1S(=O)(=O)c1ccccc1 (stereo not drawn) gave ClpP1P2: -1.297%; LiHisRS: 13.25%.
CCC(O)CN1CCN(C(=O)Cc2cc(Cl)ccc2OC)CC1 (stereo not drawn) gave ClpP1P2: -8.168%; LiHisRS: 12.5%.
CC1(CCC(=O)N2CCC(n3cc(C4(O)CCCC4)nn3)CC2)CC1 gave ClpP1P2: 12.85%; LiHisRS: 14.29%.
CN(Cc1ccsc1)C(=O)c1nc(N2CCCC2)ncc1Cl gave ClpP1P2: 6.813%; LiHisRS: 17.78%.
Cc1cc2ccncc2n1CC1(O)CCN(C(=O)c2ccccn2)CC1 gave ClpP1P2: -17.03%; LiHisRS: 14.29%.
CCNC(=O)[C@@H]1C[C@H](NC(=O)Cn2ccnc2)CN1Cc1ccsc1 gave ClpP1P2: 0.4795%; LiHisRS: 10.39%.